Laboratory results taken from PubChem BioAssay AID1347423 (Functional Genomics Laboratory (NCATS/FGL), 2020).
About 210 (0.4%) of roughly 52,000 sequences were called active.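 The calls were made as follows: active = gene whose silencing raises cell survival under the drug, median off-target-corrected z-score across its silencing RNAs 2 or more; inactive = the rest.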 Some of the results follow.

test: Resistance to Poly (ADP-Ribose) Polymerase inhibitor: Gene Identification via Genome-wide siRNA Screen; conditions: mouse BRCA2 R2336H ES cells, olaparib, CellTiter-Glo viability; hits give high values
How it was run: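 Genome-wide siRNA screen (3 siRNAs/gene, 20 nM) in mouse ES cells carrying hypomorphic BRCA2 R2336H; olaparib 500 nM added 48 h post-transfection, CellTiter-Glo viability 72 h later. Normalized to plate-median negative control; MAD z-scores, gene median, seed-adjusted.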

Sequence	z-score
GCCAGUUCCUAUCUGGCUUTT against 4931428L18Rik	inactive: -0.75
GGUGAUCACUCUCUCUGAATT against Olfr187	inactive: -0.153
GCUUCAGGUCAGUCUCUUCTT against Olfr1042	inactive: 0.109
GCUCUCAUCAGACUUCGAGTT against Zfp202	inactive: 0.288
GGCUUCUAUGUCAUAGGAATT against Olfr351	inactive: 0.282
CCAGAGGUCUCUAUUAAGATT against Cad	inactive: -0.521
GGGCAAGUCCAUCCAAGACTT against Pthlh	inactive: 0.102
GCCAUCAUCUGGGUAGUGUTT against Olfr1494	inactive: -0.735
CGAACCAAUGUCAACUUUCTT against 4933408F15	inactive: -0.953
GGCUGAUGGAAGAAUAUGATT against Actn2	inactive: 1.38
GGAAGAUCCAUUUAAUGUATT against Eps15	inactive: 0.349
GGAAGCUACCCAGAUGGAUTT against AI841987	inactive: 2.52
GGCAAAAUAAAGCAGUGGUTT against Mrps25	inactive: -0.934
GGACAGUUCCUUCAGCACCTT against Bmf	inactive: -0.185
GGAUAAUGUCUCCUGCUUGTT against Plk3	inactive: -0.834
GCAUACGAAGGACAACCUGTT against Bspry	inactive: -0.986
GGCUAUGCAAGUGUUCUCUTT against Abpd	inactive: -0.478
GCUCGUGUCAGAACCGAUGTT against Rwdd3	inactive: 0.942
GGCUCACCCUAACUUUCCATT against Akr1c18	inactive: -0.528
GGGACAGAGCCGAAAGAGUTT against Mrpl33	inactive: -1.15
GCUCAGGCAAGACUCAUUGTT against Trim45	inactive: -1.65
GGUGAAGAAAGUCAAGAAGTT against Sfpi1	inactive: 1.08
GGUCUACUUUUACGUCUCCTT against Nfatc4	inactive: 0.465
GGCGCAGUAUCACAGUCUUTT against Tle1	inactive: -2.51
GCUGUAACUACAUUUGAGGTT against 4931406I20Rik	inactive: 0.0952
GCUGAUUACCUCAGCAGAUTT against Prkcn	inactive: -0.0476

Looked up one by one from the list above (2):
Sequence	z-score
GCUGAUUACCUCAGCAGAUTT against Prkcn	inactive: -0.0476
GCUCGUGUCAGAACCGAUGTT against Rwdd3	inactive: 0.942

Additional results.

Sequence	z-score
GGUUUUCAAGUUUUAGUGUTT against Gsta2	inactive: -0.239
GGAAGGAGAGACCAUUGAGTT against Nudt1	inactive: -3.1
GGCCUUUCACUUUCACUGGTT against Car6	inactive: 0.874
GGAGACUGUGAAGUUUGUATT against Armet	inactive: -0.693
GGCUAAAAAUCUCAUAGAGTT against Zpbp	inactive: 0.488
GGCACAAUAAAAUAUAAGGTT against Srprb	inactive: 1.09
CCAAUAAGUACAGCACCUUTT against C1ql4	inactive: -1.77
GCCAUCUGCCAGUAUACAATT against LOC381438	inactive: -1.84
GGAUACCACCAUCAAUGAGTT against Atp6v1f	inactive: -0.615
GGAAGGACAGAAGAGGCCATT against Slc22a13	inactive: -0.574
GGCAAAUGAGACCUCAGAATT against Cpxm1	inactive: -0.0873
CCUCGCUUAUGUCAAUAAUTT against 1700008G05Rik	inactive: 0.835
CCCUUGGCCAAGGAACAUUTT against 4921509C19Rik	inactive: -0.0297
GGCCAUAGCAUCUUGUUCUTT against Supt4h	inactive: -1.64
GGCCUACAACAACCUCAUUTT against Crat	inactive: -1.15
GCAUUUCCUUAACACUCCCTT against Msmb	inactive: 1.07
CCUGGUACUCCAGAAUGUUTT against Sh3tc1	inactive: -0.782
UACAUACAGGCUGUCUGUUTT against Olfr181	inactive: -0.221
GCGCAAACUUUAAUAACACTT against 9130423L19Rik	inactive: -0.0417
ACUGUAUACAAUUUCUUGCTT against Olfr206	inactive: -0.0829
GCCCUGUUGGACAUGAUCGTT against 2310001N14Rik	inactive: 0.369
GGCAGUUAUGAUAAAGAUUTT against Slc25a16	inactive: -0.19
CCACCUGGUUUAUCAAAAUTT against Cnot4	inactive: 1.76
GGUAGAAGGUCCUGAAGAATT against Clybl	inactive: -1.33
GGCAGAAGACUUGGUGAUCTT against 2810423O19Rik	inactive: -1.21
GGAUUGUGUUUGAGUCUCATT against MGC49146	inactive: -1.4
